Where a name gives a salt, the structure may show the parent alone. Some of the results follow. Single values are uncertain here, since repeats match poorly.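 In a drug-repurposing library screen, luminescence reads luciferase driven by eight TEAD-binding elements, stably integrated into human kidney-derived cells. Compounds scoring over five robust Z scores above the plate mean are called hits.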
Tested on: HEK293A TEAD-LUC reporter
Assay: TEAD-luciferase reporter activity (YAP activation), robust Z score vs plate; higher = stronger YAP/TEAD activation
Conditions: 24 h

Row | SMILES | TEAD-luciferase reporter activity (compound concentration: 200 nM) | TEAD-luciferase reporter activity (compound concentration: 2 uM) | TEAD-luciferase reporter activity (compound concentration: 10 uM)
1 | CCCCCOc1ccccc1/C(=C\SC)n1ccnc1 | inactive: -0.162 | inactive: 0.862 | inactive: 1.28
2 | CO/N=C/C1=CCCN(C)C1 [Milameline hydrochloride] | inactive: -1.55 | inactive: 2.05 | inactive: -0.7
3 | CCc1cc(Oc2cccc(N(Cc3cccc(OC(F)(F)C(F)F)c3)C[C@@H](O)C(F)(F)F)c2)ccc1Cl | inactive: -1.03 | inactive: 0.0522 | inactive: 0.919
4 | CCN1CCN(C(c2cccs2)c2ccc3cccnc3c2O)CC1 (stereo not given) | inactive: 2.08 | inactive: 1.64 | inactive: -0.949
5 | CC(=O)c1c2c(c(C)[nH]c1=O)CCCC2 | inactive: -1.06 | inactive: -1.19 | inactive: -0.797
6 | CN1CCN(C2CCC(n3cc(-c4ccc(NS(=O)(=O)c5cccc(Cl)c5Cl)c(F)c4)c4c(N)ncnc43)CC2)CC1 (stereo not given) | inactive: 0.649 | inactive: -2.21 | inactive: -0.43
7 | COc1ccc(C#Cc2ccccc2)c(CCC(C)N(C)CCc2ccc(OC)c(OC)c2)c1 (stereo not given) | inactive: -0.684 | inactive: -1.84 | inactive: 2.63
8 | O=C1NC(=O)C2C3C=CC(C12)C1C2C(=O)NC(=O)C2C31 (stereo not given) [mitindomide] | inactive: -2.19 | inactive: -1.34 | inactive: -1.59
9 | CCNC(=O)[C@H]1O[C@@H](n2cnc3c(NCC(c4ccccc4)c4ccccc4)nc(C(=O)NCCNC(=O)NC4CCN(c5ccccn5)CC4)nc32)[C@H](O)[C@@H]1O | inactive: -0.701 | inactive: -2 | inactive: -0.171
10 | CCOc1c(N)c2c(c(OCC)c1OCC)C(C1c3c(cc4c(c3OC)OCO4)CCN1C)OC2=O (stereo not given) [Tritoqualine] | inactive: 0.248 | inactive: -0.107 | inactive: 0.934
11 | CN(C)CC/C=C1/c2ccccc2COc2ccc(CC(=O)O)cc21 [olopatadine (high-dose)] |  | inactive: -0.133 | 
12 | CN(C)CC/C=C1/c2ccccc2COc2ccc(CC(=O)O)cc21 | inactive: -1.03 |  | inactive: -0.204
13 | O=C(/C=C/c1c(-c2ccccc2)nn2ccccc12)N1CCCC[C@@H]1CCO | inactive: -0.138 | inactive: -1.04 | inactive: 2.88
14 | CN1CCN(C(c2ccccc2)c2ccccc2)CC1 [Cyclizine hydrochloride] | inactive: 0.709 | inactive: -0.181 | inactive: 3.16
15 | CN1CCC(NC(=O)c2cccn3ccnc23)CC1 | inactive: -0.0914 | inactive: -0.958 | inactive: 3.03
16 | CC(OC(=O)c1c[nH]c2ccccc12)C1CCCCN1C (stereo not given) | inactive: -1.1 | inactive: 0.233 | inactive: 1.54
17 | N#Cc1ccc2[nH]cc(CCCCN3CCN(c4ccc5oc(C(N)=O)cc5c4)CC3)c2c1 [Vilazodone hydrochloride] | inactive: -0.188 | inactive: -1.21 | inactive: 1.19
18 | Cc1cc2ncc(C(=O)N3CCCCC3)cn2n1 | inactive: -2.93 |  | inactive: 4.71

In a second layout: entries from further up
Row,SMILES,TEAD-luciferase reporter activity (compound concentration: 200 nM),TEAD-luciferase reporter activity (compound concentration: 2 uM),TEAD-luciferase reporter activity (compound concentration: 10 uM)
6,CN1CCN(C2CCC(n3cc(-c4ccc(NS(=O)(=O)c5cccc(Cl)c5Cl)c(F)c4)c4c(N)ncnc43)CC2)CC1 (stereo not given),inactive: 0.649,inactive: -2.21,inactive: -0.43
8,O=C1NC(=O)C2C3C=CC(C12)C1C2C(=O)NC(=O)C2C31 (stereo not given) [mitindomide],inactive: -2.19,inactive: -1.34,inactive: -1.59

From the supplement of paper PMC10735217
